Data as given in PubChem BioAssay AID1259308 (NCATS, 2017)

Assay: 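Candidate targets for better recombinant protein yield in mammalian cells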 (primary screen)
System: human HEK293 embryonic kidney cells stably expressing firefly luciferase (HEK-CMV-Luc2-Hygro)
Reagent: single siRNA against human genes, 0.8 pmol siRNA per well
Time to read-out: 72 h
Measurement: 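Luciferase light (ONE-Glo) measured on one replicate plate set and viability (CellTiter-Glo) on the other, scaled to a negative control siRNA, with robust z-scores and luciferase per cell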
Reading the numbers: total luciferase, z-score and total luciferase, % of control: higher = more reporter protein produced; luciferase per cell, z-score: higher = more reporter output per viable cell; viable cells, % of control: higher = more viable cells
Active means: 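Active when the median/MAD z-score for overall luciferase is greater than 3; a gene was taken forward for validation with new siRNAs if at least two of its three siRNAs passed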
Calls: active = raised luciferase; inactive = no rise
In all, the deposit lists about 59,000 reagents; shown is a random part of them. In the full data, about 1,510 (2.6%) got an active call. 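Calls use total luciferase alone and ignore viability, so some active siRNAs may act by altering cell number.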 The numbers tell different reagents against one gene apart.

Target gene,reagent no.,"total luciferase, z-score","total luciferase, % of control","luciferase per cell, z-score","viable cells, % of control",Call
WFDC21P,1,2.51,132,2.41,78,inactive
WFDC21P,2,0.031,82.5,-0.209,97.4,inactive
WFDC21P,3,-0.293,76.1,-0.743,103,inactive
SLC4A11,1,-0.0979,79.9,-0.643,106,inactive
SLC4A11,2,-1.2,58,-1.1,86.6,inactive
SLC4A11,3,0.558,93,-0.143,108,inactive
PRKDC,1,-1.64,49.2,1.21,40,inactive
PRKDC,2,0.138,84.6,-0.252,101,inactive
PRKDC,3,0.00199,81.9,-0.123,94.6,inactive
TMEM138,1,0.589,93.6,0.0166,104,inactive
TMEM138,2,-1.02,61.6,-1.49,102,inactive
TMEM138,3,-0.157,78.8,0.232,82.8,inactive
C3orf85,1,-0.725,67.5,-0.191,79.3,inactive
C3orf85,2,-0.507,71.8,1.21,58.4,inactive
C3orf85,3,-1.1,59.9,-1.22,92.5,inactive
SH3PXD2A,1,0.384,89.5,0.00285,100,inactive
SH3PXD2A,2,-0.542,71.1,0.236,74.7,inactive
SH3PXD2A,3,0.537,92.6,0.405,93,inactive
ERG28,1,0.745,96.7,0.00141,108,inactive
ERG28,2,-0.157,78.8,-0.469,99.6,inactive
ERG28,3,-0.164,78.6,0.384,79.4,inactive
NDUFV1-DT,1,0.552,92.9,1.75,65.4,inactive
NDUFV1-DT,2,0.545,92.7,0.201,98.3,inactive
NDUFV1-DT,3,-0.804,65.9,0.821,59.3,inactive

Already shown: an excerpt of the list.
Target gene,reagent no.,"total luciferase, z-score","total luciferase, % of control","luciferase per cell, z-score","viable cells, % of control",Call
PRKDC,1,-1.64,49.2,1.21,40,inactive
PRKDC,2,0.138,84.6,-0.252,101,inactive
PRKDC,3,0.00199,81.9,-0.123,94.6,inactive
